Among all 52,000 sequences or so, about 210 (0.4%) were called active.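 Rule for the calls: active = gene whose silencing raises cell survival under the drug, median off-target-corrected z-score across its silencing RNAs 2 or more; inactive = the rest.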 Some of the results follow.
Assay: Resistance to Poly (ADP-Ribose) Polymerase inhibitor: Gene Identification via Genome-wide siRNA Screen
Conditions: mouse BRCA2 R2336H ES cells, olaparib, CellTiter-Glo viability; active compounds read high
Outline: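 Genome-wide siRNA screen (3 siRNAs/gene, 20 nM) in mouse ES cells carrying hypomorphic BRCA2 R2336H; olaparib 500 nM added 48 h post-transfection, CellTiter-Glo viability 72 h later. Normalized to plate-median negative control; MAD z-scores, gene median, seed-adjusted.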
With CGCAUCCAAGCUGAUAAAGTT against Stoml3 the z-score was inactive: -0.594. With “CCUGAUGCGUUACAACAACTT against D4Ertd196e” the z-score was inactive: 1.85. In the case of GGUCUUUUUAUCCCAUUGUTT against Olfr1298, the z-score was inactive: -2.03. With GGGAAGAUCACAUUUUCGCTT against Ephx2 the z-score was inactive: 0.933. In the case of “CCAGCGAGAAUGAAAUUCCTT against 5730593N15Rik”, the z-score was inactive: 0.942. With ACACUCCUAAAUUGAUCAUTT against Olfr1258 the z-score was inactive: -0.297. For CCUCAUCAAUUGGUUAGAATT against Brip1, the z-score was inactive: 0.389. For CGGCAAAUUCGUGAAAAGGTT against Olfr575, the z-score was inactive: -0.0403. For GGAACCUCUCAGAUUUUCATT against BC050092, the z-score was inactive: -0.625. With GGGCAUGCCCAAGAGAAUATT against Tcp1 the z-score was inactive: -2.57. With GCUGACACAUUUUCACAUGTT against Itgax the z-score was inactive: 0.886. With “GGAAAGAAACAAAGAAUGATT against 9930117H01Rik” the z-score was inactive: -0.178. For “GCUGAACUGUCUCAGCUCATT against 4930429O20Rik”, the z-score was inactive: 1.24. With CCAGCGAACAAAAUGAGGATT against Dusp23 the z-score was inactive: -0.143. With GGGCUGAGGAGAAAAUGCATT against Gtl2 the z-score was inactive: -0.152. In the case of “GGUAGGUCGUCGAGAAUACTT against 1700036D21Rik”, the z-score was inactive: -1.1. In the case of AGCAGAAAAAGGAAGGCCATT against Xlr3b, the z-score was inactive: 1.27. In the case of GCAGUUCGAAUGGAGUGGUTT against Ube2v1, the z-score was inactive: 0.0143. With GUCCUCAUCGGUCUGUUUATT against Mb the z-score was inactive: 0.255. For GGAUUUCCAGGUUAUUUUCTT against Csnb, the z-score was inactive: 0.139. With “CGAUAGUAAAAGAAAGCUATT against 8430416H19Rik” the z-score was inactive: -1.51. With GGAACUUACAAGUAUCAGATT against Bhlhb5 the z-score was inactive: -0.645. For GCAGCAGACACUCUGUACATT against Pcbp4, the z-score was inactive: 0.884. With “CCUCUCAUGAUGUUACCACTT against 5031414D18Rik” the z-score was inactive: 1.12. In the case of GGAAUUUUCUAUAGUCCGGTT against Flrt2, the z-score was inactive: 0.268. In the case of GCUGUUCUCGCCUAUGCAATT against Dll4, the z-score was inactive: 1.11. With CCCUGCUAAAAUCGACCUGTT against BC052360 the z-score was inactive: 0.603. In the case of GCACGAGAGACAUUUCUCCTT against Myst2, the z-score was inactive: -0.416. With “GGACAAAGACCAGUCAUUCTT against 4921504I05Rik” the z-score was inactive: 0.764. With “GGGAGGAGAGUGAUUGAGATT against A730013G03Rik” the z-score was inactive: 1.46. For “CCUAUUAAGCUCAACAAGCTT against E030002O03Rik”, the z-score was inactive: -0.474. For “GGACGUAGAAAUGAAACCATT against 2410004F06Rik”, the z-score was inactive: -0.18. For GCCUUCAGUACUGAUACCCTT against E2f2, the z-score was inactive: 1.09. With “GGUCCUGAUGUUGAAGGCATT against 5830482F20Rik” the z-score was inactive: -2.06. For GGCCUGGAAGAUGAAGAUGTT against Arid3b, the z-score was inactive: 2.65. In the case of GGGAUUAUCUGAGAUGGAUTT against Btbd1, the z-score was inactive: -0.773. With GGAAGAGAAAAGGAAGAAATT against Ankrd23 the z-score was inactive: -0.772. With GGAAUUGUACAAAUGACCUTT against Adam29 the z-score was active: -0.0465. With UUUAAGGACCUUGUAAGAATT against Olfr813 the z-score was inactive: 1.4. In the case of GGACCUUCUUCAAGAAAGUTT against Olfr430, the z-score was inactive: -0.266. For UCCCUAACGGCCCUUUUUATT against Hist2h4, the z-score was inactive: -0.609. With “CCGUACCGAAUCCUUUAUCTT against 4933431N12Rik” the z-score was inactive: -0.413. With GGAUAUAAAUGACAACUCGTT against Pcdhb5 the z-score was inactive: 0.598. In the case of GGGUAUAAGAGACAAGUAUTT against Cplx1, the z-score was inactive: -1.97. With GCCUUACCGUCGAGGGUUUTT against Ppap2b the z-score was inactive: -1.56. With “GGUGGACAGAUUUAAGCUUTT against 5830457O10Rik” the z-score was inactive: -0.535. For GGAUACCAUUGUGGUCGCATT against Hck, the z-score was inactive: -0.618. With GGAGGAUGGUUUCAAUUCUTT against Pdha2 the z-score was inactive: 0.0881. In the case of “GCUCUAUGAGAGUAUAUUATT against 1500001M20Rik”, the z-score was inactive: -0.647. For GGUGUACAACGUAUUCAUATT against Suv39h1, the z-score was inactive: 0.525. With GCCUUAACUAUGUUGUCUATT against Mgst1 the z-score was inactive: -0.976. With GGCAUCCACCCUAAGGUCATT against Keap1 the z-score was inactive: 0.252. With GCAGAGUUACAAGCUUUUATT against Diap3 the z-score was inactive: -0.806. For GGAAGAGCAGGAGGAAACATT against Mea1, the z-score was inactive: -1.24. For “CGAGCUAAAUUUCAAGAACTT against 1700008I05Rik”, the z-score was inactive: 0.781. In the case of “CCUUGGAACCUUUAGUUAATT against 2500002L14Rik”, the z-score was inactive: -0.128. With GGUCAUGACUGGUGUGUCATT against Allc the z-score was inactive: -2.72. In the case of GGCCAACUUCGAAGAAAAGTT against Mrpl52, the z-score was inactive: -0.09. In the case of GGAAAGAAGGACAAAUAAUTT against Spg20, the z-score was inactive: -1.22. For CCAAAACCUAACUUGAAGATT against Rad51ap1, the z-score was inactive: 1.04. For GCUCAUAAAUAAAAAGACGTT against Mcm6, the z-score was inactive: 0.267. In the case of GGUCAAGAAGAGUAUAGUGTT against Hras1, the z-score was inactive: -0.346. With GGACUUCUUGUUUCUUACATT against Olfr1140 the z-score was inactive: -1.12. For CCGGUUACCAAUUGAUAAATT against Cspg6, the z-score was inactive: -0.911. For “CGUGUCAGAACUCGAUCUUTT against E130107N23Rik”, the z-score was inactive: 0.779. For GCCAGUCAUGUCCAAAGUATT against Hdac1, the z-score was inactive: -2.13. In the case of GGGACUGUUUCAGCUAUACTT against H6pd, the z-score was inactive: -0.781. With “GGACUGGUGGACAUAUGAATT against 4632413K17Rik” the z-score was inactive: -0.411. For GCUCUCACACCCUUAUGUATT against Sdfr1, the z-score was inactive: -1.45. In the case of GGAAAGUGAUUGUUGGAGCTT against Fpr-rs3, the z-score was inactive: -1.69. With GGUCAAUUCGGAGGUCCAGTT against Zfp385 the z-score was inactive: -2. For GCUUAUAAGAGUCUAUCUUTT against Stam, the z-score was inactive: 0.882. With GGAGAUAUCCAUCAAUAGUTT against Nbr1 the z-score was inactive: -0.0777. In the case of GGGCUUCAUUAAGGACUGCTT against Freq, the z-score was inactive: -0.173. In the case of CCUAUGUAACACAAACAUUTT against Orc5l, the z-score was inactive: 0.535. For GGGUGUCUCCAUUUUUCCUTT against BC068281, the z-score was inactive: -0.955. For “GCAUGUGGCUAACUUCAAATT against 4933411G06Rik”, the z-score was inactive: 1.11. In the case of “CGCUCUCUCUACAAAGGAUTT against A230052G05Rik”, the z-score was inactive: -0.259. For GGACACAAUAUGUGAAGUATT against BC016423, the z-score was inactive: 0.193. In the case of CCUUCUAUUCACUUUACCATT against V1rk1, the z-score was inactive: 1.77. For GGCCUUCAGAAAGUCCUUGTT against Car2, the z-score was inactive: -0.283. For UGUAUAGCUAUGACCCUGCTT against AI413582, the z-score was inactive: -1.33. In the case of GGAUGUACAAGAAAAGUAUTT against Ccr3, the z-score was inactive: -0.616. In the case of GGUUCCAAGAGACUGAAAGTT against LOC544763, the z-score was inactive: 0.842. With “CCGUUCUGGCACAGAACAGTT against A830005F24Rik” the z-score was inactive: -0.54. With “GGUUAUCUAUGGUCGGAAGTT against 2610003J06Rik” the z-score was inactive: 1.18. With GGAGUUUCUACGUGUAUGCTT against Tpra40 the z-score was inactive: 0.00753. In the case of GCCAACGAGAUUUGUAACATT against Dr1, the z-score was inactive: 0.18. With GGUGAAAAGUCCUGCCAAGTT against Nefh the z-score was inactive: -0.961. In the case of CCCAAGAUGGUUUUAAGUUTT against Met, the z-score was inactive: -0.643. For GGUGGGCUCAAGAACUUCUTT against MGC48079, the z-score was inactive: 0.656. In the case of “GGUUAUAGAGCGAGCAGCUTT against 2600016B03Rik”, the z-score was inactive: 0.11. With GCCAAGAGCACAUCUGCUATT against AI848100 the z-score was inactive: -0.907. For GGCUGAAGAUCACCAAGAATT against Neurl, the z-score was inactive: -3.41. In the case of CGGAAUUAUGAUCAUUGAGTT against Bbx, the z-score was inactive: -2.25. In the case of GGUCUUCAACCCUGUUUGGTT against Gpsm3, the z-score was inactive: 0.405. For GGAGCAUGGUUUUAUAAUATT against Rims2, the z-score was inactive: -0.452. In the case of “GAGAUUUACUCUGGACAUUTT against D8Ertd354e”, the z-score was inactive: -0.781. For GGGAAGCUAGGCACUUCAUTT against Plk4, the z-score was inactive: 0.418. With “GGAAAUUGCAUGUGAAAUUTT against 5830434P21Rik” the z-score was inactive: -1.7. For “GGACACAGGCCUAUAUUUUTT against 4933439F11Rik”, the z-score was inactive: 0.28. In the case of GGAGUCUAAGUUAUAAUCUTT against Gm169, the z-score was inactive: 1.05. With “CCGUGUGGAAAAUAAAUUATT against 1700013G24Rik” the z-score was inactive: 1.5.
